In patent US7951364B2, “CaR receptor as a mediator of migratory cell chemotaxis and/or chemokinesis” (The General Hospital Corporation, priority 2000, dated 2011):
For at least one compound, name, drawing or mass did not settle the structure.

Tested on: CD14^+ monocytes
Test: Transmigration assay (monocyte chemotaxis, transwell)
Assay type: cell-based, human
Procedure: Preparation of peripheral blood CD14^+ monocytes. Low density cells were isolated from human and mouse peripheral blood using Ficoll-Hypaque (Pharmacia, Piscataway, N.J.). CD14^+ monocytes were purified by sorting on FACSVantage (Becton Dickinson, San Jose, Calif.) based on CD14 expression. Purified cells were incubated in either calcium-free medium (Hanks' Balanced Salt Solution 1×, CellGro, Hermdon. VA) or Iscove's Medium 1×(Mod) (CellGro, Herndon, Va.) which contains 1.5 mM Ca++. […] Cells were incubated for up to 24 hours in 5% CO2 humidified air. Monocytes were then detached from the plate using a cell scraper. All calcium concentrations indicated in the presentation of the data represent the total Ca^++ present in the basal medium plus any added Ca^++.
Transmigration assays. Transwells (5 μm pore size polycarbonate membrane, 12 mm diameter) (Costar, Corning, N.Y.) were used to assess cell migration using an established methodology (25). The concentration of Ca^++ in IMDM (CellGro, Herndon, Va.) in the upper and lower chambers of the transwell were adjusted according to a checkerboard analysis of chemotaxis. Calcium concentrations varied from 0 mM to 6.5 mM. Purified monocytes (1×10^4) were then placed in the top chamber with 150 μl of IMDM (CellGro, Hemdon, Va.). […] At the end of the experiment, cells were then harvested from the lower chamber and counted using a hemocytometer.

COC[C@H]1OC(=O)c2coc3c2[C@@]1(C)C1=C(C3=O)[C@@H]2CCC(=O)[C@@]2(C)C[C@H]1OC(C)=O [wortmannin]
Inhibition of Ca^++-induced monocyte chemotaxis by pretreatment: not
Inhibition of monocyte chemotaxis towards a positive gradient of Ca^++ by pretreatment (Ca^++ at 3 mM): not
